# Measured values as given in the supplement of paper PMC8728848.
# Some of the results follow.
# B1: RbmA (Vibrio cholerae), A0A2H4NFB8 (protein)
# chain: MSNFKGSIMNKRHYYLASCLALLFSTASYAEVDCELQPVIEANLSLNQNQLASNGGYISSQLGIRNESCETVKFKYWLSIKGPEGIYFPAKAVVGVDTAQQESDALTDGRMLNVTRGFWVPEYMADGKYTVSLQVVAENGEVFKANQEFVKGGDLNSLPELNGLTIDIKNQFGINSVESTGGFVPFTIDLNNGREGEAKVEFWMTAVGPDGLIIPVHSREKWMIIAGNTFSKVRGINFDKSYPAGEYTINAQVVDIVSGERVEQLMTVVKK
# What was measured:
# Assay in all cases: glycan array binding signal (z-score within array); higher = stronger binding
# Settings in all cases: glycan notation: IUPAC condensed, linker removed
# [1] = target: Neu5Ac(a2-6)Gal(b1-4)GlcNAc(b1-6)GalNAc
# How it was run: (§1)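 Columns mapping to the same glycan were averaged after glycan names were converted to IUPAC-condensed notation. The data come from 3228 arrays in the Consortium for Functional Glycomics database, limited to those with an available protein sequence. Binding is reported as a within-array Z-score averaged across arrays of one protein sequence and across linkers.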
# [2] = target: Neu5Ac(a2-6)Gal(b1-4)GlcNAc(b1-6)[Gal(b1-3)GlcNAc(b1-3)]Gal(b1-4)Glc
# How it was run: as §1
# [3] = target: Neu5Ac(a2-6)Gal(b1-4)GlcNAc(b1-6)[Gal(b1-3)]GalNAc
# How it was run: as §1
# [4] = target: Neu5Ac(a2-6)Gal(b1-4)GlcNAc6S
# How it was run: as §1
# Neu5Ac(a2-6)GalNAc = target: Neu5Ac(a2-6)GalNAc
# How it was run: as §1
# [5] = target: Neu5Ac(a2-6)GalNAc(b1-4)GlcNAc
# How it was run: as §1
# [6] = target: Neu5Ac(a2-6)GalNAc(b1-4)GlcNAc6S
# How it was run: as §1
# [7] = target: Neu5Ac(a2-6)GlcNAc(b1-4)GlcNAc
# How it was run: as §1
# [8] = target: Neu5Ac(a2-6)GlcNAc(b1-4)GlcNAc(b1-4)GlcNAc
# How it was run: as §1
# Neu5Ac(a2-8)Neu5Ac = target: Neu5Ac(a2-8)Neu5Ac
# How it was run: as §1
# [9] = target: Neu5Ac(a2-8)Neu5Ac(a2-3)Gal(b1-3)GalNAc(b1-4)[Neu5Ac(a2-3)]Gal(b1-4)Glc
# How it was run: as §1
# [10] = target: Neu5Ac(a2-8)Neu5Ac(a2-3)Gal(b1-3)GalNAc(b1-4)[Neu5Ac(a2-8)Neu5Ac(a2-3)]Gal(b1-4)Glc
# How it was run: as §1
# [11] = target: Neu5Ac(a2-8)Neu5Ac(a2-3)Gal(b1-4)Glc
# How it was run: as §1
# [12] = target: Neu5Ac(a2-8)Neu5Ac(a2-3)Gal(b1-4)GlcNAc
# How it was run: as §1
# [13] = target: Neu5Ac(a2-8)Neu5Ac(a2-3)[Gal(b1-3)GalNAc(b1-4)]Gal(b1-4)Glc
# How it was run: as §1
# [14] = target: Neu5Ac(a2-8)Neu5Ac(a2-3)[GalNAc(b1-4)]Gal(b1-4)Glc
# How it was run: as §1
# [15] = target: Neu5Ac(a2-8)Neu5Ac(a2-8)Neu5Ac
# How it was run: as §1
# [16] = target: Neu5Ac(a2-8)Neu5Ac(a2-8)Neu5Ac(a2-3)Gal(b1-4)Glc
# How it was run: as §1
# [17] = target: Neu5Ac(a2-8)Neu5Ac(a2-8)Neu5Ac(a2-3)[Gal(b1-3)GalNAc(b1-4)]Gal(b1-4)Glc
# How it was run: as §1
# [18] = target: Neu5Ac(a2-8)Neu5Ac(a2-8)Neu5Ac(a2-3)[GalNAc(b1-4)]Gal(b1-4)Glc
# How it was run: as §1
# [19] = target: Neu5Ac(a2-8)Neu5Ac(a2-8)Neu5Ac(a2-8)Neu5Ac(a2-3)[GalNAc(b1-4)]Gal(b1-4)Glc
# How it was run: as §1
# [20] = target: Neu5Ac(a2-8)Neu5Gc(a2-3)Gal(b1-4)GlcNAc
# How it was run: as §1
# [21] = target: Neu5Ac(b2-6)Gal(b1-4)GlcNAc
# How it was run: as §1
# Neu5Ac(b2-6)GalNAc = target: Neu5Ac(b2-6)GalNAc
# How it was run: as §1
# [22] = target: Neu5Ac9Ac(a2-3)Gal(b1-4)GlcNAc
# How it was run: as §1
# [23] = target: Neu5Ac9Ac(a2-6)Gal(b1-4)GlcNAc
# How it was run: as §1
# [24] = target: Neu5Gc(a2-3)Gal(b1-3)GlcNAc
# How it was run: as §1
# [25] = target: Neu5Gc(a2-3)Gal(b1-3)[Fuc(a1-4)]GlcNAc
# How it was run: as §1
# Neu5Gc(a2-3)Gal(b1-4)Glc = target: Neu5Gc(a2-3)Gal(b1-4)Glc
# How it was run: as §1
# [26] = target: Neu5Gc(a2-3)Gal(b1-4)GlcNAc
# How it was run: as §1
# [27] = target: Neu5Gc(a2-3)Gal(b1-4)GlcNAc(b1-3)Gal(b1-4)GlcNAc(b1-2)Man(a1-3)[Neu5Gc(a2-3)Gal(b1-4)GlcNAc(b1-3)Gal(b1-4)GlcNAc(b1-2)Man(a1-6)]Man(b1-4)GlcNAc(b1-4)GlcNAc
# How it was run: as §1
# [28] = target: Neu5Gc(a2-3)Gal(b1-4)[Fuc(a1-3)]GlcNAc
# How it was run: as §1
# [29] = target: Neu5Gc(a2-6)Gal(b1-4)GlcNAc
# How it was run: as §1
# Neu5Gc(a2-6)GalNAc = target: Neu5Gc(a2-6)GalNAc
# How it was run: as §1
# [30] = target: Neu5Gc(a2-8)Neu5Ac(a2-3)Gal(b1-4)GlcNAc
# How it was run: as §1
# [31] = target: Neu5Gc(a2-8)Neu5Gc(a2-3)Gal(b1-4)GlcNAc
# How it was run: as §1
# [32] = target: Neu5Gc(a2-8)Neu5Gc(a2-3)Gal(b1-4)GlcNAc(b1-3)Gal(b1-4)GlcNAc
# How it was run: as §1
# [33] = target: Neu5Gc(a2-8)Neu5Gc(a2-6)Gal(b1-4)GlcNAc
# How it was run: as §1
binder,measurement,setting,value
B1,glycan array binding signal (z-score),[1],-0.899
same,glycan array binding signal (z-score),[2],-0.069
same,glycan array binding signal (z-score),[3],-0.803
same,glycan array binding signal (z-score),[4],1.46
same,glycan array binding signal (z-score),Neu5Ac(a2-6)GalNAc,-1.65
same,glycan array binding signal (z-score),[5],1.39
same,glycan array binding signal (z-score),[6],-0.066
same,glycan array binding signal (z-score),[7],-0.396
same,glycan array binding signal (z-score),[8],-0.407
same,glycan array binding signal (z-score),Neu5Ac(a2-8)Neu5Ac,-0.531
same,glycan array binding signal (z-score),[9],1.75
same,glycan array binding signal (z-score),[10],0.072
same,glycan array binding signal (z-score),[11],0.755
same,glycan array binding signal (z-score),[12],0.05
same,glycan array binding signal (z-score),[13],-0.461
same,glycan array binding signal (z-score),[14],-0.02
same,glycan array binding signal (z-score),[15],-0.718
same,glycan array binding signal (z-score),[16],-0.665
same,glycan array binding signal (z-score),[17],-0.211
same,glycan array binding signal (z-score),[18],-0.287
same,glycan array binding signal (z-score),[19],0.581
same,glycan array binding signal (z-score),[20],-0.772
same,glycan array binding signal (z-score),[21],-0.805
same,glycan array binding signal (z-score),Neu5Ac(b2-6)GalNAc,-0.014
same,glycan array binding signal (z-score),[22],-0.939
same,glycan array binding signal (z-score),[23],-0.608
same,glycan array binding signal (z-score),[24],-0.801
same,glycan array binding signal (z-score),[25],1.45
same,glycan array binding signal (z-score),Neu5Gc(a2-3)Gal(b1-4)Glc,0.337
same,glycan array binding signal (z-score),[26],0.734
same,glycan array binding signal (z-score),[27],1.1
same,glycan array binding signal (z-score),[28],-0.631
same,glycan array binding signal (z-score),[29],-0.715
same,glycan array binding signal (z-score),Neu5Gc(a2-6)GalNAc,-1.03
same,glycan array binding signal (z-score),[30],-0.254
same,glycan array binding signal (z-score),[31],-0.291
same,glycan array binding signal (z-score),[32],0.128
same,glycan array binding signal (z-score),[33],-0.769

# Copied from the entries so far for reference:
binder,measurement,setting,value
B1,glycan array binding signal (z-score),[9],1.75
same,glycan array binding signal (z-score),[10],0.072
